Results deposited as PubChem BioAssay AID743454 (Peter MacCallum Cancer Centre, 2014).
Here is an unselected part of about 18,000 reagents. Of all reagents, 450 (2.5%) were called active. 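Single biological run; no consistent viability z cut-off exists, so the class columns, not z-scores, define the calls.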 No sequences are given here.

- Screen: 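Knock-downs lowering viability or raising caspase 3/7 activity in vorinostat-treated resistant cells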 (primary screen)
- Cell system: human HCT116-VR colon cancer cells, selected for vorinostat resistance
- Knock-down reagent: siRNA pool against human genes, 40 nM siRNA pool
- Time to read-out: vorinostat for 24 h, read-out about 72 h after transfection
- Challenge: vorinostat at 2.5 µM final
- Detection: 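Cell viability by CellTiter-Fluor and caspase 3/7 activity by luminescence, each scaled to mock wells per plate, duplicates averaged, then robust z-scored over all plates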
- Reading the numbers: viability robust z-score: higher = more viable cells than screen typical; caspase robust z-score: higher = more caspase 3/7 activity than screen typical
- Call rule: 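Hits are knock-downs in viability class RV1/RV2 or caspase class CA1/CA2, excluding ones that killed cells in the no-drug cell-count arm; hits then retested with single siRNAs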

no.	Target gene	viability hit class	caspase hit class	viability robust z-score	caspase robust z-score	activity call
1	FNDC3B	no change	no change	0.04	0.12	inactive
2	TMEM255A	no change	no change	0.03	-0.76	inactive
3	NOS3	no change	no change	-1.46	-0.2	inactive
4	FRMD3	no change	no change	0.4	-0.36	inactive
5	CLMP	no change	no change	1.24	-0.06	inactive
6	RBM12B	no change	no change	-0.72	0.44	inactive
7	SNAI2	no change	no change	0.48	-0.78	inactive
8	SAA2	no change	no change	-1.6	0.22	inactive
9	SYT7	no change	no change	-0.32	-0.86	inactive
10	CHST8	no change	no change	-1.34	2.23	inactive
11	WFDC10A	no change	no change	-0.66	1.26	inactive
12	GSTM5	no change	no change	-0.22	-0.61	inactive
13	STAU1	no change	no change	0.82	0.26	inactive
14	P2RX5	no change	no change	-0.38	1.39	inactive
15	CLIC1	no change	no change	-1.78	1.03	inactive
16	RRP8	no change	no change	-1.05	3.59	inactive
17	GNG3	no change	no change	-0.09	-0.4	inactive
18	ZNF670	no change	no change	-1.09	2.05	inactive
19	MAOB	no change	no change	0.55	0.13	inactive
20	TRIM48	no change	no change	0.7	0.3	inactive
21	DPYSL4	no change	no change	0.56	0.04	inactive
22	C6	no change	no change	0.89	-0.72	inactive
23	VCX2	no change	no change	1.14	-0.78	inactive
24	UGT3A1	no change	no change	-0.11	-0.78	inactive
25	IFI30	no change	no change	1.12	0.66	inactive
26	ARHGDIB	no change	no change	1.32	-0.43	inactive
27	FAM110C	no change	no change	-2.56	-1.27	inactive

Quoted from the entries so far, 4 entries:
no.	Target gene	viability hit class	caspase hit class	viability robust z-score	caspase robust z-score	activity call
23	VCX2	no change	no change	1.14	-0.78	inactive
24	UGT3A1	no change	no change	-0.11	-0.78	inactive
25	IFI30	no change	no change	1.12	0.66	inactive
26	ARHGDIB	no change	no change	1.32	-0.43	inactive

Continued.
no.	Target gene	viability hit class	caspase hit class	viability robust z-score	caspase robust z-score	activity call
28	RTCA	no change	no change	-0.18	1.22	inactive
29	MMS22L	no change	no change	-0.02	-0.04	inactive
30	SLC5A2	no change	no change	0.32	1.82	inactive
31	GEMIN7	no change	no change	-0.58	-0.93	inactive
32	ARL5A	no change	no change	-0.88	4.46	inactive
33	TCF15	no change	no change	0.73	-0.28	inactive
34	PI4KB	no change	no change	-0.47	-1.31	inactive
35	CX3CL1	no change	no change	-0.31	0.29	inactive
36	PARP6	no change	no change	-0.55	4.47	inactive
37	SRRM1	no change	no change	-0.32	-0.4	inactive
38	BTBD9	no change	no change	0.36	-0.52	inactive
39	PDE6G	no change	CA1 (caspase activation)	0.63	5.56	active
40	HDC	no change	no change	-0.76	0.68	inactive
41	B3GAT1	no change	no change	-2.2	2.39	inactive
42	ENAM	no change	no change	0.27	-0.97	inactive
43	SYVN1	no change	CA2 (caspase activation)	-2.47	15.8	active
44	LAPTM4B	no change	no change	0.62	-0.38	inactive
45	CCKAR	no change	no change	0.7	1.38	inactive
46	PPP1R14C	no change	no change	-1.23	0.04	inactive
47	PCDHGB6	no change	no change	0.02	-0.27	inactive
48	NAA50	no change	no change	0.64	0.02	inactive
49	STK16	no change	no change	0.48	2.69	inactive
50	EML5	no change	no change	0.33	-0.27	inactive
51	NUDT17	no change	no change	0.94	-0.9	inactive
52	TCEAL4	no change	no change	-1.28	-0.18	inactive
53	PROCR	no change	no change	0.12	-0.38	inactive
54	SIGLEC8	no change	no change	1.52	0.98	inactive
55	EFCC1	no change	no change	-1.45	-1.57	inactive
56	IRAK4	no change	no change	0.84	-0.01	inactive
57	MEGF10	no change	no change	0.65	-0.29	inactive
